For four sequences, binding signal (log2 relative supershift) results are on record in PMC12370185.

The other results are listed elsewhere or left out. For some of these results: At the low end of the ranking the order means little.

Details in all cases: 10 mM Tris-Cl pH 7.5, 50 mM NaCl, 1 mM DTT, 0.25 mg/ml BSA, 2 mM MgCl2, 0.025% Nonidet P-40, 5% glycerol; 28 nM nucleosome library; 10 min on ice then 30 min …; high values mean tight binding; double strand, one strand shown
Experiment [1] relates to KLF4 + histone octamer. As to the kind of experiment: EMSA with sequencing.
Experiment [2] concerns c-MYC + MAX + histone octamer. As to the kind of experiment: EMSA with sequencing.
In experiment [3] the test system is OCT4 + histone octamer. Description: Pioneer-seq (competitive nucleosome EMSA with sequencing).
For experiment [4], the system named is SOX2 + histone octamer. Described as above.

As for “GATGGACCCTATACGCGGCCATTCCCCAAGCCCTCCCAGTTATCCATGATCAGGAGGCTGTCTCTTTGCCTGCCTTCTCCAACCCTGCACCCAGCCTCTTTGCCTCTGCAGGACTTCCCCAGAAAGTTGAATCTTCTTCCCTTTATAGAGCGGAGCAGTTCAGCTCAGACTTGTAGGCACACCTGTGCAGCACAGACCAACGTCTCTCCTTGCCAGTCGGATAGTGTTCC”, the binding signal (log2 relative supershift) in experiment [1] is 2.22; in experiment [2] it was 0.578; in experiment [3] it was -0.401; in experiment [4], -0.273.
The corresponding values for “GATGGACCCTATACGCGGCATTGCCGTGGGAGTGCCAACTACTGTGGAATAACAGGCCCAGCCCTGCAGGCTCGGGCACGCTGTGCTGTAGGCCACAGCAACCACAGGCTCTGAGGCCTCTGGCCGCTCCAGGAGGGAGGGGTGCCGGGACAGAGACGCCCTCAGGCCTGGGAAGGCAAACTTGGAGGTGGGGTGGAGGGGACTTGAGGATGCCAGTCGGATAGTGTTCC” are 2.57, 0.0478, -0.959 and -1.65.
The matching figures for “GATGGACCCTATACGCGGCATACATGGCACATACATTTGCCAAAACCAGTGAAATTTACAACACCAAGCATGAACCCTAATGTAAACGCATACTTTGAGTGATAATGATGTGTCTACGTTGGTTCATCAGCTGCAGCAAATGTACCACACTGGTGTGGACAGTGGGGAAGCCTGTGGGTGTAAGGGGAGGGAGTATATGGGAACTGTCTGTGCCAGTCGGATAGTGTTCC”: 0.432, 0.317, -0.259 and -0.0699.
The corresponding values for “GATGGACCCTATACGCGGCGACCTGCTCTGCAAGGCATCAGATGCCTTCCAGTCAGTAAGAGACAAGAGATACACAGGGTGCTCCCATTCCCACAGCAAGCACCACCCTGCACCACTAGTATTAGCACCACCCACATGGAAGGGTGCCAGACACATACCTACTAGCTGCCTGCCACGCATGGAAAATTCTTTAGGCAATACCCTCCGCACTGCCAGTCGGATAGTGTTCC” are 0.902, 0.234, -0.258 and -0.0578.
